In the supplement of paper PMC10849652:
The other results are listed elsewhere or left out.

The chains behind the UniProt entries cited, without tags or fusion partners. Where a name states a change or a piece, a line headed by the entry shows the natural chain unless it says otherwise.
UniProt P51153: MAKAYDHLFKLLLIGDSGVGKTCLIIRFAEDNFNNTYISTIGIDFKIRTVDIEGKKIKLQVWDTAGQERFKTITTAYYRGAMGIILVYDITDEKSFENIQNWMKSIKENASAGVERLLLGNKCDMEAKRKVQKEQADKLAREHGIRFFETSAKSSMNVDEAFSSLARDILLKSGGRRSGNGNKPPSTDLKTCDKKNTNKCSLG
UniProt Q969Q5: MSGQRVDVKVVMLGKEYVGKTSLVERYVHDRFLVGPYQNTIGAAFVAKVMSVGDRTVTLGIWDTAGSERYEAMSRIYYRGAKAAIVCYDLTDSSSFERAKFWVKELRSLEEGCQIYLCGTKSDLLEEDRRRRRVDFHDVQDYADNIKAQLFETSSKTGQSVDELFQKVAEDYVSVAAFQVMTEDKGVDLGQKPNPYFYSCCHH
UniProt P61225: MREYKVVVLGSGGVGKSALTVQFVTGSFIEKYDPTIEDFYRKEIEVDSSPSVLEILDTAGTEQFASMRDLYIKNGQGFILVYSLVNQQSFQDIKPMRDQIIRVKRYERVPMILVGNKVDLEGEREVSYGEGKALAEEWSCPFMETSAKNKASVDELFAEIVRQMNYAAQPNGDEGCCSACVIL
UniProt Q9H2T7: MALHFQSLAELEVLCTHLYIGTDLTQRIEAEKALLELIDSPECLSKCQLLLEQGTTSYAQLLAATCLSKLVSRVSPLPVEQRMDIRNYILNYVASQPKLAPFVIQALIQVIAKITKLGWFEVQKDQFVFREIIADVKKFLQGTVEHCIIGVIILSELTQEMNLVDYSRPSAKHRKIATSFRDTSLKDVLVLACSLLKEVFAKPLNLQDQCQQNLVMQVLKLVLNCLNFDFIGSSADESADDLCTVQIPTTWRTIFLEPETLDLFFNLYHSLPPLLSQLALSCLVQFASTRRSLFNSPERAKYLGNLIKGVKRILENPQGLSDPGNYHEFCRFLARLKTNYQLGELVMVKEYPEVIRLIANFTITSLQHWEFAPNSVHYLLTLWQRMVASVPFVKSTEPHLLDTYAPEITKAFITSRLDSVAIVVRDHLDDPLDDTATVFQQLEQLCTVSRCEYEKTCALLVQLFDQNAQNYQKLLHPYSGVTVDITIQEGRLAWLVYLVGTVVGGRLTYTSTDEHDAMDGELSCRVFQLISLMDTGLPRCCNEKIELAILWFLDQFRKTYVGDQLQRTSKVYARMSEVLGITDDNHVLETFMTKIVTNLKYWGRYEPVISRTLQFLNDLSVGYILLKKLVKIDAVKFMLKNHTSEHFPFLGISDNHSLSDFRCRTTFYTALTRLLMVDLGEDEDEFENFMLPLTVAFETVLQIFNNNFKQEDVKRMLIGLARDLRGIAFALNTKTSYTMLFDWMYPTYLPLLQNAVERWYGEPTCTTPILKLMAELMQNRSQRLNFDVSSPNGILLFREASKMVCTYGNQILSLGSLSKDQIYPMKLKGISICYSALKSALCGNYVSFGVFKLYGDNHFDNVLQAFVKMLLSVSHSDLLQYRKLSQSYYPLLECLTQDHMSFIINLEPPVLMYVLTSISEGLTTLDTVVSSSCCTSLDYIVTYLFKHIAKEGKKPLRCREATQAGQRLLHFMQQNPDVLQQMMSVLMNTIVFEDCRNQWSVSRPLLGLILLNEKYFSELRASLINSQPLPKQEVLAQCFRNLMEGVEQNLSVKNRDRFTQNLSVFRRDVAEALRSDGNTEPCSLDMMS
UniProt Q9UJ41, whole entry, looked up: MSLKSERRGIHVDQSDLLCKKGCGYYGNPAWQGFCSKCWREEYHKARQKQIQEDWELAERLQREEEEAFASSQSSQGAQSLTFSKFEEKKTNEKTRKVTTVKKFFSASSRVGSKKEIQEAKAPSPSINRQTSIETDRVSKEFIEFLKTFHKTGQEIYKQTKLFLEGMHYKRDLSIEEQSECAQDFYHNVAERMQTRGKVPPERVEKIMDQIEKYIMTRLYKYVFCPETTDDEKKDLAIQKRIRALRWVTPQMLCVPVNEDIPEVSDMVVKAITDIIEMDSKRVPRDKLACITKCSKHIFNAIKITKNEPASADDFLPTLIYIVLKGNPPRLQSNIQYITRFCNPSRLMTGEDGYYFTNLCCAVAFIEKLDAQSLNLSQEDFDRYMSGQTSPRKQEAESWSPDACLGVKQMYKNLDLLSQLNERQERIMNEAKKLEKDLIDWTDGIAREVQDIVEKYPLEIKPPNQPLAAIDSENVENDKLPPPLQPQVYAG
UniProt Q53S08: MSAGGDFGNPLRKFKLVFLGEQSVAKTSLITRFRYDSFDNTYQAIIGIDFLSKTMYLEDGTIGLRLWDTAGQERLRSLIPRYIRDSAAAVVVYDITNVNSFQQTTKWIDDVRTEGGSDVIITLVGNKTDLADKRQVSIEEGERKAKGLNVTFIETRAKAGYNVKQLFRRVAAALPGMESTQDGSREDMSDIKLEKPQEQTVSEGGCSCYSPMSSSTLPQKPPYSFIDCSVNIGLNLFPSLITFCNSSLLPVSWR
UniProt O60216: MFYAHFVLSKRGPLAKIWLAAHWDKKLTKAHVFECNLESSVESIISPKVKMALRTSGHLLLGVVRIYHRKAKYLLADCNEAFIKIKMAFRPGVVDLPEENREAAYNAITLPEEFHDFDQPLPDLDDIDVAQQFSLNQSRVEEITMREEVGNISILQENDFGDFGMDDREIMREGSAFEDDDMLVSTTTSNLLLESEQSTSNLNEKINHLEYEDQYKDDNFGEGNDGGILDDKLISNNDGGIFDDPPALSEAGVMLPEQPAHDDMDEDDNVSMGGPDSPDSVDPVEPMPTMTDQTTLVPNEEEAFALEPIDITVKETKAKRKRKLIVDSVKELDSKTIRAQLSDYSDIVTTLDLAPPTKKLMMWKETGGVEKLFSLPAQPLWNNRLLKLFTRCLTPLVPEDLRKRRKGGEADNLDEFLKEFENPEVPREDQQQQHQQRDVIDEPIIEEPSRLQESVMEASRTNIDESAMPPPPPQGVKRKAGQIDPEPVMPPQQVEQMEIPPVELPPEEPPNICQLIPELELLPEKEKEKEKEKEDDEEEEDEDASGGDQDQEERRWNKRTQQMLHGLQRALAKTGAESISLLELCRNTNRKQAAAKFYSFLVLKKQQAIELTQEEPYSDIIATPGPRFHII
UniProt Q6WKZ4: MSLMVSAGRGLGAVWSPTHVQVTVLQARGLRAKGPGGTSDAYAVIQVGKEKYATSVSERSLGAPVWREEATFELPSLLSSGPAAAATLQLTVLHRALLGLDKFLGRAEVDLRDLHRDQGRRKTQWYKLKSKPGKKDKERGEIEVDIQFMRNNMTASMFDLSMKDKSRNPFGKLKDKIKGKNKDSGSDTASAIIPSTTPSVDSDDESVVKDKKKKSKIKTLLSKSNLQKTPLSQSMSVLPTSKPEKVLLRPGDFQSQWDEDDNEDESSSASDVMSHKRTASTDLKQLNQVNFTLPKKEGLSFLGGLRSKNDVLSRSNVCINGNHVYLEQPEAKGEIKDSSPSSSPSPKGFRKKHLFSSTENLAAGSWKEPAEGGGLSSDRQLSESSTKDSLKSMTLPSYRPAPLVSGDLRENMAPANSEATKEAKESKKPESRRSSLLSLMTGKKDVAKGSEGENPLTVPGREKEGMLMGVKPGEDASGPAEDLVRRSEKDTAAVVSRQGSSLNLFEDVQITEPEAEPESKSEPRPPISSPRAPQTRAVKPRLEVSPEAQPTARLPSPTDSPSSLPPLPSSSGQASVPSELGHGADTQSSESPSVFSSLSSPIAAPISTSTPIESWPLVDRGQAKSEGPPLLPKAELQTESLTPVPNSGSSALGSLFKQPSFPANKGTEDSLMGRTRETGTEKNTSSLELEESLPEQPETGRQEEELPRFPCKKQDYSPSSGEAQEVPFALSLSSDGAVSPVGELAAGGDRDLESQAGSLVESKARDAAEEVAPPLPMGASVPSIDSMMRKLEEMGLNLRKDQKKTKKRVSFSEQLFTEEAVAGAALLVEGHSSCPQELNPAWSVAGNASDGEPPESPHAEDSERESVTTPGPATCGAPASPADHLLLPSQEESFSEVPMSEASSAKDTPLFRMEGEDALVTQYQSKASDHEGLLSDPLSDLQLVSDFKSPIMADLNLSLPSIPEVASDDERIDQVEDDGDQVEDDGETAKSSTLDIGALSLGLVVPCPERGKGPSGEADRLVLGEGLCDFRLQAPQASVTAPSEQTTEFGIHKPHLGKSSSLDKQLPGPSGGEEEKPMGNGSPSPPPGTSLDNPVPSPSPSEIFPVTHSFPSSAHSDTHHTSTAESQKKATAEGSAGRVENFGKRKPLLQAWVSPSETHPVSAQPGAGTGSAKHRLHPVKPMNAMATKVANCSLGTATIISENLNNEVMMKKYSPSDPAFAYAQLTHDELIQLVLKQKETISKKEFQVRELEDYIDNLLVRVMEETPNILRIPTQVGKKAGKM
UniProt P47224: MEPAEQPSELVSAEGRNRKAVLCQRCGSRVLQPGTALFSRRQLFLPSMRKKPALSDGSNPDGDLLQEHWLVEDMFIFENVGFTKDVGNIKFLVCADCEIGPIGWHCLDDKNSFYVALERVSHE
UniProt Q9BTL3: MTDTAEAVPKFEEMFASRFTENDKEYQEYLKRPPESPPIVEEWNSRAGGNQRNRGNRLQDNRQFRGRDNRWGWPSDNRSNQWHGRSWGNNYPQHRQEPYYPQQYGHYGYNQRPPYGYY
UniProt Q8TBN0: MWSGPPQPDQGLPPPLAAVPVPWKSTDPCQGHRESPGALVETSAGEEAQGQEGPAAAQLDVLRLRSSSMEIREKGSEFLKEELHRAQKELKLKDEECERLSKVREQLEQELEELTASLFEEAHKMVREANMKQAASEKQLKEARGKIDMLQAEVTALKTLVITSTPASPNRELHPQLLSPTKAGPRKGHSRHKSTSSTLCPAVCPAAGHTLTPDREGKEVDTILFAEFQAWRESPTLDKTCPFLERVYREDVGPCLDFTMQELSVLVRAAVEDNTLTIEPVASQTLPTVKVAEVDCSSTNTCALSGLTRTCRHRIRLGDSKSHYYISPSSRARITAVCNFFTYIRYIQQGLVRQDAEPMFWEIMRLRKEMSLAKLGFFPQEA
UniProt P51159: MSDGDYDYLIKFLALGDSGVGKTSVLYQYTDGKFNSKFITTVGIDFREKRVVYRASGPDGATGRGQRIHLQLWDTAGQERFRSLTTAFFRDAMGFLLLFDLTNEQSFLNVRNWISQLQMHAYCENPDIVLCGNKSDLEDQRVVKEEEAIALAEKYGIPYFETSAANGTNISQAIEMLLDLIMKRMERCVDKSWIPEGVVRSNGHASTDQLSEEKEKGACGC
UniProt Q9H082: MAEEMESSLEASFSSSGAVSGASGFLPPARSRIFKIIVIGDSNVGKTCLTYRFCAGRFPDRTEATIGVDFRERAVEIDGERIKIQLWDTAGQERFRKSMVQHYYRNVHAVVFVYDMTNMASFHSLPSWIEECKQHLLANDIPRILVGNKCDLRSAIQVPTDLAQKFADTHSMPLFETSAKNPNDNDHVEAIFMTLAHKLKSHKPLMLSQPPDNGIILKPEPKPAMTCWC
UniProt Q15276: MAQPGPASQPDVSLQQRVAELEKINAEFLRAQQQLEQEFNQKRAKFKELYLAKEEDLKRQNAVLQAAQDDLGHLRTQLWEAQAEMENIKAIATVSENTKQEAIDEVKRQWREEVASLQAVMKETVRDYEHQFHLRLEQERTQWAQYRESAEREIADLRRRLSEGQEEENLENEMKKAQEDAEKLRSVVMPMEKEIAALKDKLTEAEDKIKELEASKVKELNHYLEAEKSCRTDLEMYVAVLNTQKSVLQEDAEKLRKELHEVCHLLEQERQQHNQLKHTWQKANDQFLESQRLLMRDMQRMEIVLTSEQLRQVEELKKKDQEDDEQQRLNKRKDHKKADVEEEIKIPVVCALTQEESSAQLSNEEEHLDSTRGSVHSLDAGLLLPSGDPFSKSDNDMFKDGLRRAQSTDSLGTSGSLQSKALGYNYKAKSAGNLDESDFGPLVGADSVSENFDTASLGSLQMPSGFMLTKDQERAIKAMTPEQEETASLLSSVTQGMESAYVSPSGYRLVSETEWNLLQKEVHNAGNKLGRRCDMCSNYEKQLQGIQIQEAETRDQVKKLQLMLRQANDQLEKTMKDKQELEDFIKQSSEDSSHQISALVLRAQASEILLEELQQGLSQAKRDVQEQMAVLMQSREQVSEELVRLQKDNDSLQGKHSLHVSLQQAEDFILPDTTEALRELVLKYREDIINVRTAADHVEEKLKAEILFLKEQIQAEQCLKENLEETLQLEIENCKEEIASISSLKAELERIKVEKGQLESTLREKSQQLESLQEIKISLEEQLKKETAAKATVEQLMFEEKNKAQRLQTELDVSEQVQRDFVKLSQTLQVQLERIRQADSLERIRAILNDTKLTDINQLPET
UniProt P61106, whole entry, looked up: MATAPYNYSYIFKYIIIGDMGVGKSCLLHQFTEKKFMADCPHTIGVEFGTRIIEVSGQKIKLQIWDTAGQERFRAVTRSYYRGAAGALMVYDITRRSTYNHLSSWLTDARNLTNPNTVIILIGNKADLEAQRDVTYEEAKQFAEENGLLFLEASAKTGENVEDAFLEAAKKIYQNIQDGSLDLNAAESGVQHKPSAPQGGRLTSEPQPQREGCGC
UniProt Q8N0T1: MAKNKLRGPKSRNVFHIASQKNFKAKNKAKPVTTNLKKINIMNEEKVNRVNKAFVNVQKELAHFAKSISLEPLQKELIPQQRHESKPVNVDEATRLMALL

Legend:
Assay in all cases: log2 fold change, soluble protein after heating vs DMSO (PISA); higher = thermal stabilisation; K562 cells, 10 uM, 30 min; active = over 0.2 and 3.5 SD of the protein, either way, in both replicates (recomputed)
[1] = compound: COC1=CC=C(C=C1)CN2C=CC3=C2C=C(C=C3)C(=O)NO
In short: (§1)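 K562 cells (2×10^6 cells/mL) were treated with 10 μM compound for 30 min, and aliquots were heated for 3 min over 48°C-58°C. Pooled aliquots were extracted in PBS with 0.5% NP-40 at 4°C, and the supernatant after 21,000xg for 90 min was measured by TMTpro 16plex LC-MS/MS with channel sums equalised. Reported thermal stability, relative to control samples and from duplicates, is a log2 fold change.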

filanesib = compound: CON(C)C(=O)N1N=C(c2cc(F)ccc2F)S[C@@]1(CCCN)c1ccccc1 [filanesib]
In short: as §1

zotarolimus = compound: CO[C@H]1C[C@@H]2CC[C@@H](C)[C@@](O)(O2)C(=O)C(=O)N2CCCC[C@H]2C(=O)O[C@H]([C@H](C)C[C@@H]2CC[C@H](n3cnnn3)[C@H](OC)C2)CC(=O)[C@H](C)/C=C(\C)[C@@H](O)[C@@H](OC)C(=O)[C@H](C)C[C@H](C)/C=C/C=C/C=C/1C [zotarolimus]
In short: as §1

idasanutlin = compound: COc1cc(C(=O)O)ccc1NC(=O)[C@@H]1N[C@@H](CC(C)(C)C)[C@](C#N)(c2ccc(Cl)cc2F)[C@H]1c1cccc(Cl)c1F [idasanutlin]
In short: as §1

alisertib = compound: COc1cc(Nc2ncc3c(n2)-c2ccc(Cl)cc2C(c2c(F)cccc2OC)=NC3)ccc1C(=O)O [alisertib]
In short: as §1

[2] = compound: COc1cc2nc(-c3cc(F)ccc3O)nc(N[C@@H]3CNC[C@H]3C(C)(C)O)c2cc1OC
In short: as §1

gefitinib = compound: COc1cc2ncnc(Nc3ccc(F)c(Cl)c3)c2cc1OCCCN1CCOCC1 [gefitinib]
In short: as §1

[3] = compound: COc1cccc2cc(-c3nc([C@H]4CC[C@H](C(=O)O)CC4)n4ncnc(N)c34)[nH]c12
In short: as §1

lapatinib = compound: CS(=O)(=O)CCNCc1ccc(-c2ccc3ncnc(Nc4ccc(OCc5cccc(F)c5)c(Cl)c4)c3c2)o1 [lapatinib]
In short: as §1

pictilisib = compound: CS(=O)(=O)N1CCN(Cc2cc3nc(-c4cccc5[nH]ncc45)nc(N4CCOCC4)c3s2)CC1 [pictilisib]
In short: as §1

Measured: log2 fold change

RAB12, A0A3B3ITT1
inactive: [1] 0.018 | filanesib -0.008 | zotarolimus 0.006 | idasanutlin -0.044 | alisertib -0.056 | [2] 0.074 | gefitinib 0.02 | [3] 0.072 | lapatinib 0.001 | pictilisib 0.163

RAB13 (UniProt P51153)
inactive: [1] -0.029 | filanesib -0.107 | zotarolimus 0.003 | idasanutlin -0.026 | alisertib -0.049 | [2] -0.107 | gefitinib 0 | [3] -0.003 | lapatinib 0.02 | pictilisib -0.034

RAB5A (UniProt P20339)
inactive: [1] 0.147 | filanesib -0.151 | zotarolimus 0.017 | idasanutlin -0.108 | alisertib -0.129 | [2] -0.049 | gefitinib -0.016 | [3] 0.021 | lapatinib 0.011 | pictilisib -0.11

RAB24 (UniProt Q969Q5)
inactive: [1] 0.09 | filanesib -0.095 | zotarolimus -0.002 | idasanutlin -0.037 | alisertib -0.036 | [2] -0.063 | gefitinib -0.027 | [3] 0.013 | lapatinib 0.002 | pictilisib 0.006

RAP2B (UniProt P61225)
inactive: [1] 0.049 | filanesib -0.055 | zotarolimus -0.026 | idasanutlin -0.044 | alisertib -0.036 | [2] 0.1 | gefitinib 0.059 | [3] 0.042 | lapatinib 0.062 | pictilisib 0.059

RBM26 isoform 2 (UniProt Q5T8P6)
inactive: [1] 0.086 | filanesib -0.071 | zotarolimus 0.03 | idasanutlin -0.025 | alisertib 0.093 | [2] -0.045 | gefitinib 0.064 | [3] 0.009 | lapatinib 0.034 | pictilisib 0.059

RANBP17 (UniProt Q9H2T7)
inactive: [1] 0.052 | filanesib -0.022 | zotarolimus 0.139 | idasanutlin -0.307 | alisertib -0.412 | [2] 0.288 | gefitinib -0.002 | [3] 0.038 | lapatinib -0.063 | pictilisib -0.097

RABGEF1 isoform 3 (UniProt Q9UJ41)
inactive: [1] 0.065 | filanesib 0.025 | zotarolimus 0.038 | idasanutlin 0.008 | alisertib -0.018 | [2] 0.046 | gefitinib -0.047 | [3] 0.031 | lapatinib -0.023 | pictilisib 0.036

RAC3 (UniProt P60763)
inactive: [1] 0.025 | filanesib 0.031 | zotarolimus 0.125 | idasanutlin 0.017 | alisertib -0.038 | [2] -0.067 | gefitinib 0.017 | [3] 0.026 | lapatinib 0.061 | pictilisib 0.071

RAD9A (UniProt Q99638)
inactive: [1] -0.05 | filanesib -0.053 | zotarolimus -0.036 | idasanutlin -0.032 | alisertib -0.08 | [2] -0.027 | gefitinib -0.034 | [3] 0.017 | lapatinib 0.057 | pictilisib 0.405

RAB6D (UniProt Q53S08)
inactive: [1] 0.13 | filanesib -0.025 | zotarolimus -0.058 | idasanutlin -0.07 | alisertib 0.014 | [2] 0.159 | gefitinib 0.045 | [3] 0.057 | lapatinib -0.019 | pictilisib 0.076

Two records picked at random from the list so far, as already listed:
RAD9A (UniProt Q99638)
inactive: [1] -0.05 | filanesib -0.053 | zotarolimus -0.036 | idasanutlin -0.032 | alisertib -0.08 | [2] -0.027 | gefitinib -0.034 | [3] 0.017 | lapatinib 0.057 | pictilisib 0.405

RAC3 (UniProt P60763)
inactive: [1] 0.025 | filanesib 0.031 | zotarolimus 0.125 | idasanutlin 0.017 | alisertib -0.038 | [2] -0.067 | gefitinib 0.017 | [3] 0.026 | lapatinib 0.061 | pictilisib 0.071

Following part

RAD21 (UniProt O60216)
inactive: [1] 0.05 | filanesib 0.05 | zotarolimus 0.009 | idasanutlin 0.002 | alisertib -0.052 | [2] -0.006 | gefitinib 0.006 | [3] 0.042 | lapatinib 0.029 | pictilisib 0.024

RAB11FIP1 (UniProt Q6WKZ4)
inactive: [1] -0.024 | filanesib 0.004 | zotarolimus 0 | idasanutlin -0.015 | alisertib 0.368 | [2] -0.03 | gefitinib -0.009 | [3] 0.007 | lapatinib 0.01 | pictilisib -0.107

RABIF (UniProt P47224)
inactive: [1] 0.092 | filanesib 0.041 | zotarolimus 0.03 | idasanutlin 0.02 | alisertib -0.151 | [2] -0.016 | gefitinib -0.018 | [3] -0.015 | lapatinib 0.061 | pictilisib -0.057

RAMAC (UniProt Q9BTL3)
inactive: [1] -0.055 | filanesib 0.064 | zotarolimus 0 | idasanutlin 0.028 | alisertib -0.07 | [2] -0.065 | gefitinib 0.012 | [3] -0.02 | lapatinib 0.108 | pictilisib -0.142

RAD50 isoform 2 (UniProt Q92878)
inactive: [1] -0.002 | filanesib 0.008 | zotarolimus 0.036 | idasanutlin -0.016 | alisertib 0 | [2] 0.002 | gefitinib 0.031 | [3] 0.007 | lapatinib -0.002 | pictilisib 0.02

RAD18 (UniProt Q9NS91)
inactive: [1] -0.086 | filanesib -0.001 | zotarolimus 0.077 | idasanutlin -0.068 | alisertib -0.064 | [2] 0.036 | gefitinib 0.086 | [3] -0.211 | lapatinib 0 | pictilisib 0.114

RAB3IL1 (UniProt Q8TBN0)
inactive: [1] -0.006 | filanesib -0.003 | zotarolimus -0.023 | idasanutlin 0 | alisertib -0.115 | [2] 0.07 | gefitinib 0.033 | [3] 0.038 | lapatinib 0.001 | pictilisib -0.019

RAVER1 (UniProt E9PAU2)
inactive: [1] 0.032 | filanesib -0.244 | zotarolimus 0.258 | idasanutlin 0.024 | alisertib 0.372 | [2] -0.898 | gefitinib 0.082 | [3] -0.099 | lapatinib 0.049 | pictilisib -0.002

RAB27A (UniProt P51159)
inactive: [1] -0.065 | filanesib -0.054 | zotarolimus 0.017 | idasanutlin -0.073 | alisertib -0.111 | [2] 0.017 | gefitinib 0.026 | [3] 0.069 | lapatinib 0.009 | pictilisib 0.023

RBM3 (UniProt P98179)
inactive: [1] -0.034 | filanesib 0.273 | zotarolimus -0.027 | idasanutlin 0.232 | alisertib -0.131 | [2] 0.054 | gefitinib -0.108 | [3] -0.054 | lapatinib -0.109 | pictilisib 0.017

RAB21 (UniProt Q9UL25)
inactive: [1] -0.052 | filanesib -0.045 | zotarolimus 0.014 | idasanutlin -0.042 | alisertib -0.051 | [2] 0.031 | gefitinib -0.005 | [3] 0.066 | lapatinib -0.016 | pictilisib 0.06

RAB7A (UniProt P51149)
inactive: [1] -0.017 | filanesib -0.055 | zotarolimus -0.055 | idasanutlin -0.009 | alisertib -0.047 | [2] 0.015 | gefitinib 0.014 | [3] 0.038 | lapatinib -0.005 | pictilisib -0.001

RAB33B (UniProt Q9H082)
inactive: [1] -0.104 | filanesib -0.018 | zotarolimus -0.073 | idasanutlin 0.036 | alisertib 0.035 | [2] 0.039 | gefitinib 0.037 | [3] 0.087 | lapatinib 0.046 | pictilisib 0.106

RABEP1 (UniProt Q15276)
inactive: [1] -0.021 | filanesib 0.002 | zotarolimus 0.034 | idasanutlin -0.013 | alisertib -0.064 | [2] -0.012 | gefitinib 0.035 | [3] -0.003 | lapatinib -0.002 | pictilisib 0.05

RAD51AP1 (UniProt Q96B01)
inactive: [1] -0.041 | filanesib 0.024 | zotarolimus -0.026 | idasanutlin -0.024 | alisertib -0.007 | [2] 0.036 | gefitinib 0.051 | [3] 0.025 | lapatinib -0.083 | pictilisib -0.075

RAB22A (UniProt Q9UL26)
inactive: [1] -0.007 | filanesib -0.041 | zotarolimus 0.013 | idasanutlin -0.048 | alisertib -0.015 | [2] 0.078 | gefitinib 0.032 | [3] 0.075 | lapatinib -0.002 | pictilisib 0.028

RAB14 (UniProt P61106)
inactive: [1] 0.027 | filanesib -0.02 | zotarolimus 0.013 | idasanutlin -0.023 | alisertib -0.013 | [2] 0.033 | gefitinib -0.003 | [3] 0.041 | lapatinib 0.013 | pictilisib 0.06

RBIS (UniProt Q8N0T1)
inactive: [1] -0.069 | filanesib 0.077 | zotarolimus -0.075 | idasanutlin 0.061 | alisertib -0.053 | [2] -0.018 | gefitinib -0.056 | [3] -0.012 | lapatinib 0.012 | pictilisib -0.04
